Experimental data reported in PubChem BioAssay AID493014 (National Center for Advancing Translational Sciences (NCATS), 2011).
This is one part of the list. Further columns of the screen follow, without active or inactive calls. Compounds called inactive in the main read-out are mostly missing here. The note in brackets gives the kind of curve behind each potency; many fits are weak.

Assay: qHTS Assay to Find Inhibitors of Chronic Active B-Cell Receptor Signaling
Settings: ABC-DLBCL IkBa-CBG/CBR reporter, luminescence ratio (green luciferase fused to IkBa over red control in TMD8 lymphoma cells), 4 h
Method in brief: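 TMD8 human ABC-DLBCL cells with doxycycline-inducible IκBα–green luciferase fusion and unfused red luciferase, in 0.5% FBS medium; compounds up to 46 uM, 4 h at 37C. Green/red luminescence ratio, filter-overlap corrected, fitted to concentration-response curves.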

[1] = measured here: CBR red luminescence, cell number
[2] = measured here: IkBa-CBG green luminescence

COCC(=O)Nc1ccc(S(=O)(=O)Nc2ncccn2)cc1
AC50 [1]: 6.51 µM [rising, single point]

Clc1ccc(C2=Nn3c(nnc3-c3cc(-c4ccccc4)n[nH]3)SC2)cc1
AC50 [2]: 2.06 µM [falling, full curve]

COc1cc2c(cc1NC(=O)c1cncc(Br)c1)oc1ccccc12
AC50 [1]: 0.0231 µM [rising, full curve, poor fit]

O=c1[nH]c(-c2cccs2)nc2ccccc12
AC50 [1]: 5.8 µM [rising, single point]

Cc1nc(-c2ccccn2)sc1C(=O)Nc1ccc(F)cc1F
AC50 [1]: 0.891 µM [rising, partial curve, poor fit]

CCC(=O)N(Cc1ccco1)c1nc(-c2ccc(OC)cc2)cs1
AC50 [1]: 1.84 µM [rising, partial curve, poor fit]

COc1cccc(-c2ncc3ccccc3c2CO)c1
AC50 [1]: 10.3 µM [falling, partial curve]

Cc1ccccc1OCC(=O)Nc1nnc(-c2ccncc2)s1
AC50 [1]: 11.2 µM [falling, partial curve, poor fit]

O=C1CC(c2cccc(Cl)c2)CC(O)=C1C=NC1CCCC1 (configuration not stated)
AC50 [1]: 0.00461 µM [rising, full curve, poor fit]

CCC/C(C#CCCN1C(=O)c2ccccc2C1=O)=C1/c2ccccc2C(=O)N1c1ccccc1
AC50 [1]: 2.91 µM [falling, full curve]

COCCN1C(=O)C(=O)/C(=C(/O)c2ccc(OC(C)C)cc2)C1c1cccnc1 (configuration not stated)
AC50 [1]: 29.1 µM [rising, single point]

O=c1c2c3nc4ccccc4nc3n(-c3ccc4c(c3)OCCO4)c2ncn1CC1CCCO1 (configuration not stated)
AC50 [1]: 14.1 µM [rising, partial curve]

COc1ccc2c(c1)[nH]c1c(Cl)ncnc12
AC50 [1]: 5.8 µM [falling, full curve]

Cc1cc(N2CCN(C(=O)c3ccco3)CC2)c2ccccc2n1
AC50 [1]: 11.2 µM [falling, partial curve]

COc1ccc(NC(=O)CN2CCOCC2)cc1S(=O)(=O)N1CCCCC1
AC50 [1]: 7.31 µM [rising, partial curve, poor fit]

Cc1ccccc1N(C(=O)c1snc(C(N)=O)c1N)C(C(=O)NCc1ccccc1)c1ccc(O)cc1 (configuration not stated)
AC50 [2]: 7.94 µM [falling, partial curve, poor fit]

CCOC(=O)c1cc(-c2ccccc2)n(Cc2cc(CC)no2)n1
AC50 [1]: 32.6 µM [falling, single point]

O=C(Nc1nc2ccccc2s1)c1ccc2c(c1)S(=O)(=O)c1ccccc1C2=O
AC50 [1]: 3.98 µM [rising, partial curve, poor fit]

CCN(CC(=O)NCc1ccc(F)cc1)C(=O)/C=C/c1ccc(OC)c(S(=O)(=O)NC(C)C)c1
AC50 [1]: 17.8 µM [rising, partial curve] | AC50 [2]: 12.6 µM [falling, partial curve]

NCCCn1c(C(=O)c2ccc(Cl)cc2)c2ccc([N+](=O)[O-])cc2[n+]1[O-]
AC50 [1]: 3.26 µM [falling, partial curve]

COc1cc(OC)cc(C(=O)Nc2ccc3c(c2)COC3=O)c1
AC50 [1]: 0.206 µM [falling, full curve, poor fit]

Nc1c(Br)cc2oc(-c3ccccc3)nc2c1Br
AC50 [1]: 4.11 µM [rising, full curve, poor fit]

O=C1c2ccccc2C(=O)N1CCOc1ccc(F)cc1
AC50 [1]: 15.8 µM [rising, single point]

O=C(CC1Sc2ccccc2NC1=O)c1ccc(Br)cc1 (configuration not stated)
AC50 [1]: 4.11 µM [rising, partial curve, poor fit]

COCCCNC(=O)C[C@H]1C[C@H](C(=O)N2CCOCC2)[C@@]2(CCC3CCCC3)c3[nH]c4ccc(Cl)cc4c3CCN2C1=O
AC50 [1]: 0.13 µM [rising, full curve, poor fit]

Cc1sc2nc(-c3ccc(Br)cc3)oc(=O)c2c1C
AC50 [1]: 0.282 µM [falling, full curve, poor fit]

CC1CCN(CCC(=O)N2CCCc3c2c(=O)oc2ccc(O)cc32)CC1
AC50 [1]: 17.8 µM [falling, partial curve, poor fit]

CCn1ccc2c(OCC(=O)Nc3ccccc3C)cccc2c1=O
AC50 [1]: 2.82 µM [falling, partial curve]

Cc1c(C(=O)N2CCN(C(=O)c3ccco3)CC2)oc2c(Cl)cccc12
AC50 [1]: 3.26 µM [rising, single point]

O=C(Nc1cccnc1)c1cccc(S(=O)(=O)N2CCCCC2)c1
AC50 [1]: 6.31 µM [falling, full curve]

CCCOC(=O)c1ccc(NC(=O)c2ccccc2OC)cc1
AC50 [1]: 8.91 µM [falling, partial curve, poor fit]

C/C(=C\c1cccc(Cl)c1Cl)C(=O)c1c(C)cc(C)[nH]c1=O
AC50 [1]: 0.355 µM [rising, full curve]

CC(C)Cc1cc(C(=O)NCCCN2CCOCC2)no1
AC50 [1]: 8.91 µM [rising, partial curve, poor fit]

CN(C(=S)NC1CCCCC1)C1(c2ccccc2Cl)CCCCC1=O (configuration not stated)
AC50 [1]: 23.1 µM [falling, single point]

O=C(CBr)N1CCc2ccccc2C(c2ccccc2)C1 (configuration not stated)
AC50 [1]: 31.6 µM [rising, single point] | AC50 [2]: 35.5 µM [falling, single point]

CN(Cc1ccc(Cl)c(Cl)c1)C(=O)c1cccc(S(=O)(=O)N2CCN(Cc3ccccc3)CC2)c1
AC50 [1]: 10.3 µM [falling, partial curve]

COc1cc(CN2CCN(C(=O)c3cccc4ccccc34)CC2)cc(OC)c1O
AC50 [1]: 7.94 µM [rising, partial curve, poor fit]

Nc1nc(N)c2cc(Sc3ccc4ccccc4c3)ccc2n1
AC50 [1]: 5.62 µM [falling, full curve, poor fit]

O=C(COc1ccc(/C=N/NC(=O)c2ccccc2O)cc1)Nc1ccccc1
AC50 [1]: 4.47 µM [falling, partial curve, poor fit]

OCc1cn(-c2ccccc2)nc1-c1ccc(Br)cc1
AC50 [1]: 5.01 µM [rising, full curve]
